Test results: paper PMC10113200
These are yes or no findings as the source states them, for the method shown. For some assays here: Binding seen in cells or lysates may run through a third protein. For some assays here: A result given as binding can be weak or reduced; the word gives no strength. Tags and fused reporters may be left off the sequences shown. Values belong to the binder of their own block, whether it stands above or below them.

Experiments:
[1] = target: VEL3 C-terminal GFP fusion (Arabidopsis thaliana); assay: FRET or BRET; acceptor photobleaching FRET, eGFP donor and mCherry acceptor, transient expression in Nicotiana benthamiana leaves, imaged 3 days post-infiltration
[2] = target: VEL3 N-terminal GFP fusion (Arabidopsis thaliana); assay: as above
[3] = target: VERNALIZATION5/VIN3-LIKE 3 (VEL3), yeast two-hybrid fusion (Arabidopsis thaliana); assay: two-hybrid; GAL4 BD (pDEST32, bait) and AD (pDEST22, prey) fusions in yeast AH109; growth on SD-WLHA, SD-WLH and SD-WLH with 1 to 10 mM 3AT

binding [1]: binds | binding [2]: binds
B1: HD2C, fluorescent fusion for FRET (protein, UniProt Q9LZR5 1-294)
chain: MEFWGVEVKNGKPLHLDPGLDRLVHISQVALGESKNNVTEPIQLYVTVGSDKLLIGTLSHEKFPQLSTEIVLERNFALSHTWKNGSVFFSGYKVDASDPEPEDLIDDQLEAAGFKAAPKSAAKQVNFQLPNEDVKAKQDDDADGSEEDSSDDDDSENSGDEEEEKVTAESDSEEDDSSDDEEDDSSEEETPKKPEEPKKRSAEPNSSKNPASNKKAKFVTPQKTDSKKPHVHVATPHPSKQAGKNSGGGSTGETSKQQQTPKSAGAFGCKSCTRTFTSEMGLQSHTKAKHSAAA

binding [3]: no binding
B2: HD2C, yeast two-hybrid fusion (protein, UniProt Q9LZR5 1-294)
chain: B1 chain

binding [1]: no binding | binding [2]: no binding
B3: HDA19, fluorescent fusion for FRET (protein, UniProt O22446 1-501)
chain: MDTGGNSLASGPDGVKRKVCYFYDPEVGNYYYGQGHPMKPHRIRMTHALLAHYGLLQHMQVLKPFPARDRDLCRFHADDYVSFLRSITPETQQDQIRQLKRFNVGEDCPVFDGLYSFCQTYAGGSVGGSVKLNHGLCDIAINWAGGLHHAKKCEASGFCYVNDIVLAILELLKQHERVLYVDIDIHHGDGVEEAFYATDRVMTVSFHKFGDYFPGTGHIQDIGYGSGKYYSLNVPLDDGIDDESYHLLFKPIMGKVMEIFRPGAVVLQCGADSLSGDRLGCFNLSIKGHAECVKFMRSFNVPLLLLGGGGYTIRNVARCWCYETGVALGVEVEDKMPEHEYYEYFGPDYTLHVAPSNMENKNSRQMLEEIRNDLLHNLSKLQHAPSVPFQERPPDTETPEVDEDQEDGDKRWDPDSDMDVDDDRKPIPSRVKREAVEPDTKDKDGLKGIMERGKGCEVEVDESGSTKVTGVNPVGVEEASVKMEEEGTNKGGAEQAFPPKT
